# PubChem BioAssay AID652272, Drosophila RNAi Screening Center | 2013
# Purpose: 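Genome-wide knock-down search for components of Hedgehog signalling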 (primary screen)
# System: Drosophila clone 8 (Cl8) cells
# Reagents: long dsRNA against Drosophila genes
# Measurement: 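Firefly light from a Hedgehog-responsive ptc promoter reporter and Renilla reference light, both read on a plate reader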
# Reading the numbers: firefly Hh reporter signal: higher = more ptc reporter light; Renilla reference signal: higher = more Renilla control light
# Hit rule: 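Called a hit if the two-replicate mean z-score lies below -2 or above +3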
# Calls: active = hit: reporter lowered or raised; inactive = not a hit
# The screen tested about 21,000 reagents; below is a random part of those that have a named target and a result. Over the whole deposit, 503 (2.4%) are marked active. 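Raw plate light values, not normalised; calls rest on replicate z-scores that were not deposited; hits include reporter decreases as well as increases.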 The record does not give: the amount of reagent, the time to read-out.
The first 6 records, ahead of the listing:
gene,DRSC id,"firefly Hh reporter signal, replicate 1","firefly Hh reporter signal, replicate 2","firefly Hh reporter signal, replicate 3","Renilla reference signal, replicate 1","Renilla reference signal, replicate 2",Outcome
msi (musashi),DRSC17003,4.62e5,89517,,25904,2853,inactive
Ance (Angiotensin converting enzyme),DRSC01865,77456,31057,,3169,1472,inactive
SIFaR (SIFamide receptor),DRSC13467,60824,1.44e5,,13211,3552,inactive
SIFaR (SIFamide receptor),DRSC14266,5.08e5,2.18e5,,26588,5299,inactive
CG11555,DRSC00315,1.32e5,84480,,3463,2256,inactive
Ama (Amalgam),DRSC12489,79609,50407,,3307,1864,inactive

Main list, from the first entry:
gene,DRSC id,"firefly Hh reporter signal, replicate 1","firefly Hh reporter signal, replicate 2","firefly Hh reporter signal, replicate 3","Renilla reference signal, replicate 1","Renilla reference signal, replicate 2",Outcome
msi (musashi),DRSC17003,4.62e5,89517,,25904,2853,inactive
Ance (Angiotensin converting enzyme),DRSC01865,77456,31057,,3169,1472,inactive
SIFaR (SIFamide receptor),DRSC13467,60824,1.44e5,,13211,3552,inactive
SIFaR (SIFamide receptor),DRSC14266,5.08e5,2.18e5,,26588,5299,inactive
CG11555,DRSC00315,1.32e5,84480,,3463,2256,inactive
Ama (Amalgam),DRSC12489,79609,50407,,3307,1864,inactive
Dhdds (Dehydrodolichyl diphosphate synthase subunit),DRSC17756,57104,2.33e5,,2132,8626,inactive
bib (big brain),DRSC03496,98594,44052,,4225,2057,inactive
"SmydA-8 (SET and MYND domain containing, arthropod-specific, member 8)",DRSC18797,1.34e5,2.85e5,,5704,11601,inactive
Hrb87F (Heterogeneous nuclear ribonucleoprotein at 87F),DRSC16708,95569,89472,,3911,3286,inactive
para (paralytic),DRSC19141,7.93e5,3.18e5,,45952,7143,inactive
para (paralytic),DRSC20360,92903,2.38e5,,2069,9588,inactive
Gapvd1 (GTPase activating protein and VPS9 domains 1),DRSC19752,50103,1.70e5,,2045,7458,inactive
CG32052,DRSC10966,40577,61640,47332,6464,3072,inactive
CG14200,DRSC19555,29392,49037,,1499,2880,inactive
Mcad (Medium-chain acyl-CoA dehydrogenase),DRSC09871,1.03e5,66578,,4177,2572,inactive
CG10979,DRSC12153,83448,1.04e5,,3575,3172,inactive
CG4452,DRSC10422,1.47e5,81529,,5232,3532,inactive
Lpt (Lost PHDs of trr),DRSC04291,1.04e5,81764,,1652,5797,inactive
Lpt (Lost PHDs of trr),DRSC04515,1.04e5,58778,,4042,2087,inactive
CG8353,DRSC03084,79171,34576,,2355,5104,inactive
ACC (Acetyl-CoA carboxylase),DRSC06059,28995,11474,,1108,1220,active
ACC (Acetyl-CoA carboxylase),DRSC07249,37968,28496,,2121,1405,inactive
Ugt305A1 (UDP-glycosyltransferase family 305 member A1),DRSC08541,57510,44265,,1897,3274,inactive
Act79B (Actin 79B),DRSC11604,62928,56577,,2614,1514,inactive
CG3526,DRSC17240,5.16e5,1.89e5,,28106,3746,inactive
CG3526,DRSC18636,97107,1.94e5,,3481,6778,inactive
CG8738,DRSC07256,88445,43754,,2229,3511,inactive
Bfc (Booster for Crq),DRSC08623,1.19e5,57888,,3651,4657,inactive
tapas,DRSC05950,74516,59504,,3472,2793,inactive
Mtpalpha (Mitochondrial trifunctional protein alpha subunit),DRSC01994,64827,56320,,2727,2411,inactive
CG14453,DRSC11710,1.77e5,8.10e5,1.42e5,5190,6035,inactive
Ent1 (Equilibrative nucleoside transporter 1),DRSC00330,1.18e5,69540,,4983,3208,inactive
eEF1beta (eukaryotic translation elongation factor 1 beta),DRSC07419,99702,65367,,4119,3077,inactive
CG15728,DRSC19694,1.42e5,3.62e5,,4994,12464,inactive
JYalpha,DRSC17224,73281,1.95e5,,2241,8242,inactive
CG2930,DRSC17730,1.16e5,95776,,2758,2964,inactive
sstn (stepping stone),DRSC10753,76992,,,4923,2872,inactive
Hrd3 (HMG-coA reductase degradation 3),DRSC14156,88877,67664,,4045,1350,inactive
"Lamtor3 (Late endosomal/lysosomal adaptor, MAPK and MTOR activator 3)",DRSC02815,1.40e5,67392,,3904,5732,inactive
CG18223,DRSC10306,84214,1.55e5,,2384,4048,inactive
CG2336,DRSC12581,43000,93643,,1850,2618,inactive
pnt (pointed),DRSC17028,5.24e5,68057,,19541,1608,active
CG7006,DRSC16169,92385,47314,,4771,2633,inactive
CG15458,DRSC20529,58778,2.18e5,,1424,9539,inactive
ClC-c (Chloride channel-c),DRSC10499,64371,48048,,2635,1988,inactive
l(2)10685 (lethal (2) 10685),DRSC00665,1.05e5,55816,,4288,2376,inactive
CG3281,DRSC15470,1.71e5,1.35e5,,7254,5005,inactive
Ir56b (Ionotropic receptor 56b),DRSC06543,99697,69179,,2071,4056,inactive
CG14949,DRSC08408,76389,57060,,2564,4256,inactive
CG33958,DRSC06472,62280,53128,,1706,3715,inactive
CG33958,DRSC06944,1.04e5,59915,,2454,4000,inactive
CG32856,DRSC13124,51767,1.95e5,,10850,4572,inactive
ssp5 (short spindle 5),DRSC14955,1.32e5,1.13e5,,5440,4480,inactive
wls (wntless),DRSC10605,80627,46104,,2772,1968,inactive
CG13594,DRSC04229,73380,44810,,1547,5568,inactive
Sema5c (Semaphorin 5c),DRSC11279,40722,49288,36816,5671,3280,inactive
